Record: PubChem BioAssay AID1159579 (Peter MacCallum Cancer Centre, 2015)
Assay: 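Follow-up screen seeking modulators of motility in lymphatic endothelial cells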 (follow-up of hits). System: human dermal lymphatic endothelial cells. Reagents: single siRNA against human genes, 25 nM. Measurement: 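High content images of wound closure area and cell nuclei counts, each the average of two wells, expressed against mock transfection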. Direction: migration relative to mock: higher = more migration into the scratch; mean nuclei count: higher = more cells remaining. Hit rule: 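Called active when the migration ratio is 0.6 or lower (impaired) or 1.3 or higher (accelerated), but inactive whenever the mean nuclei count falls under 3300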. Calls: active = migration changed (impaired or accelerated); inactive = no migration change, or too few cells.
The deposit covers about 2,000 reagents; below is a part drawn at random. 549 of them (27%) count as active. 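Some migration ratios are negative; siRNAs with too few cells are inactive whatever their migration ratio.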 Reagents against one gene are numbered here. Not given: the time to read-out.

no.	gene knocked down	reagent	migration relative to mock	migration and cell number class	mean nuclei count	Call
1	RHOG	1	0.82	no change in migration or cell number	6109	inactive
2	RHOG	2	0.71	no change in migration or cell number	5150	inactive
3	RHOG	3	0.8	no change in migration or cell number	5824	inactive
4	RHOG	4	0.38	migration reduced	5406	active
5	CYP1A1	1	0.74	no change in migration or cell number	5774	inactive
6	CYP1A1	2	0.42	migration reduced	3897	active
7	CYP1A1	3	0.8	no change in migration or cell number	5665	inactive
8	CYP1A1	4	0.38	migration reduced	5866	active
9	TCEAL6	1	0.92	no change in migration or cell number	5888	inactive
10	TCEAL6	2	1.18	no change in migration or cell number	6140	inactive
11	TCEAL6	3	0.92	no change in migration or cell number	5010	inactive
12	TCEAL6	4	0.9	no change in migration or cell number	5639	inactive
13	APBA3	1	0.58	migration reduced	5213	active
14	APBA3	2	0.94	no change in migration or cell number	7104	inactive
15	APBA3	3	0.65	no change in migration or cell number	6010	inactive
16	APBA3	4	0.44	migration reduced	4161	active
17	GRB10	1	0.48	migration reduced	3626	active
18	GRB10	2	1.23	no change in migration or cell number	6418	inactive
19	GRB10	3	0.78	no change in migration or cell number	5416	inactive
20	GRB10	4	1.28	no change in migration or cell number	5160	inactive
21	GLTPD2	1	1.08	no change in migration or cell number	6160	inactive
22	GLTPD2	2	0.64	no change in migration or cell number	5187	inactive
23	GLTPD2	3	1.22	no change in migration or cell number	6929	inactive
24	GLTPD2	4	0.72	no change in migration or cell number	7158	inactive
25	TMC1	1	0.82	no change in migration or cell number	6558	inactive
26	TMC1	2	0.86	no change in migration or cell number	5943	inactive
27	TMC1	3	0.56	migration reduced	4238	active
28	TMC1	4	0.94	no change in migration or cell number	5680	inactive
29	SYNGR2	1	0.38	migration reduced	6166	active
30	SYNGR2	2	0.94	no change in migration or cell number	6625	inactive
31	SYNGR2	3	0.72	no change in migration or cell number	4232	inactive
32	SYNGR2	4	0.9	no change in migration or cell number	7190	inactive
33	FARP1	1	0.94	no change in migration or cell number	5794	inactive
34	FARP1	2	0.64	no change in migration or cell number	5694	inactive
35	FARP1	3	0.61	no change in migration or cell number	5508	inactive
36	FARP1	4	0.46	migration reduced	5082	active
37	RMDN1	1	0.83	no change in migration or cell number	5746	inactive
38	RMDN1	2	1.04	no change in migration or cell number	6386	inactive
39	RMDN1	3	0.74	no change in migration or cell number	4084	inactive
40	RMDN1	4	1.04	no change in migration or cell number	5588	inactive
41	ITPR1	1	0.74	no change in migration or cell number	6116	inactive
42	ITPR1	2	1.29	no change in migration or cell number	5744	inactive
43	ITPR1	3	0.94	no change in migration or cell number	6135	inactive
44	ITPR1	4	0.88	no change in migration or cell number	4962	inactive
45	GYG1	1	0.74	no change in migration or cell number	6551	inactive
46	GYG1	2	0.86	no change in migration or cell number	6029	inactive
47	GYG1	3	0.94	no change in migration or cell number	6647	inactive
48	GYG1	4	1.01	no change in migration or cell number	5294	inactive
49	NDUFA7	1	0.38	migration reduced	6670	active
50	NDUFA7	2	0.66	no change in migration or cell number	5588	inactive
51	NDUFA7	3	0.41	migration reduced	6146	active
52	NDUFA7	4	1.06	no change in migration or cell number	5920	inactive
53	MATK	1	0.68	no change in migration or cell number	5343	inactive
54	MATK	2	0.84	no change in migration or cell number	5172	inactive
55	MATK	3	0.46	migration reduced	4443	active
56	MATK	4	1.04	no change in migration or cell number	6338	inactive
57	PDXK	1	0.92	no change in migration or cell number	5490	inactive
58	PDXK	2	0.88	no change in migration or cell number	7339	inactive
59	PDXK	3	0.93	no change in migration or cell number	6526	inactive
60	PDXK	4	0.72	no change in migration or cell number	5888	inactive
61	TUBB2A	1	-0.42	migration reduced	5518	active
62	TUBB2A	2	0.88	no change in migration or cell number	6947	inactive
63	TUBB2A	3	0.62	no change in migration or cell number	6351	inactive
64	TUBB2A	4	0.77	no change in migration or cell number	6380	inactive
65	EVA1B	1	1	no change in migration or cell number	6748	inactive
66	EVA1B	2	1.25	no change in migration or cell number	5850	inactive
67	EVA1B	3	0.72	no change in migration or cell number	6685	inactive
68	EVA1B	4	0.62	no change in migration or cell number	5442	inactive
69	TMEM121B	1	0.56	migration reduced	5827	active
70	TMEM121B	2	0.72	no change in migration or cell number	6658	inactive
71	TMEM121B	3	-0.77	migration reduced	3552	active
72	TMEM121B	4	0.58	migration reduced	3661	active
73	SGK3	1	0.44	migration reduced	5882	active
74	SGK3	2	0.9	no change in migration or cell number	6423	inactive
75	SGK3	3	0.58	migration reduced	6376	active
76	SGK3	4	0.62	no change in migration or cell number	5891	inactive
77	ELF4	1	0.9	no change in migration or cell number	6528	inactive
78	ELF4	2	-1	too few cells; migration not scored	2612	inactive
79	ELF4	3	0.66	no change in migration or cell number	5642	inactive
80	ELF4	4	0.64	no change in migration or cell number	6112	inactive
81	PRR21	1	0.62	no change in migration or cell number	5664	inactive
82	PRR21	2	0.59	migration reduced	5415	active
83	PRR21	3	0.42	migration reduced	4930	active
84	PRR21	4	0.66	no change in migration or cell number	6314	inactive
85	FBXO4	1	0.36	migration reduced	3504	active
86	FBXO4	2	0.8	no change in migration or cell number	5428	inactive
87	FBXO4	3	0.8	no change in migration or cell number	5392	inactive
88	FBXO4	4	-1.07	migration reduced	3998	active

Quoted from the listing (7 entries):
no.	gene knocked down	reagent	migration relative to mock	migration and cell number class	mean nuclei count	Call
24	GLTPD2	4	0.72	no change in migration or cell number	7158	inactive
25	TMC1	1	0.82	no change in migration or cell number	6558	inactive
26	TMC1	2	0.86	no change in migration or cell number	5943	inactive
27	TMC1	3	0.56	migration reduced	4238	active
28	TMC1	4	0.94	no change in migration or cell number	5680	inactive
29	SYNGR2	1	0.38	migration reduced	6166	active
30	SYNGR2	2	0.94	no change in migration or cell number	6625	inactive
